# Measured values as given in PMC12245033.
# Chains of the proteins cited; added tags and fusions are not shown.
# UniProt Q16531: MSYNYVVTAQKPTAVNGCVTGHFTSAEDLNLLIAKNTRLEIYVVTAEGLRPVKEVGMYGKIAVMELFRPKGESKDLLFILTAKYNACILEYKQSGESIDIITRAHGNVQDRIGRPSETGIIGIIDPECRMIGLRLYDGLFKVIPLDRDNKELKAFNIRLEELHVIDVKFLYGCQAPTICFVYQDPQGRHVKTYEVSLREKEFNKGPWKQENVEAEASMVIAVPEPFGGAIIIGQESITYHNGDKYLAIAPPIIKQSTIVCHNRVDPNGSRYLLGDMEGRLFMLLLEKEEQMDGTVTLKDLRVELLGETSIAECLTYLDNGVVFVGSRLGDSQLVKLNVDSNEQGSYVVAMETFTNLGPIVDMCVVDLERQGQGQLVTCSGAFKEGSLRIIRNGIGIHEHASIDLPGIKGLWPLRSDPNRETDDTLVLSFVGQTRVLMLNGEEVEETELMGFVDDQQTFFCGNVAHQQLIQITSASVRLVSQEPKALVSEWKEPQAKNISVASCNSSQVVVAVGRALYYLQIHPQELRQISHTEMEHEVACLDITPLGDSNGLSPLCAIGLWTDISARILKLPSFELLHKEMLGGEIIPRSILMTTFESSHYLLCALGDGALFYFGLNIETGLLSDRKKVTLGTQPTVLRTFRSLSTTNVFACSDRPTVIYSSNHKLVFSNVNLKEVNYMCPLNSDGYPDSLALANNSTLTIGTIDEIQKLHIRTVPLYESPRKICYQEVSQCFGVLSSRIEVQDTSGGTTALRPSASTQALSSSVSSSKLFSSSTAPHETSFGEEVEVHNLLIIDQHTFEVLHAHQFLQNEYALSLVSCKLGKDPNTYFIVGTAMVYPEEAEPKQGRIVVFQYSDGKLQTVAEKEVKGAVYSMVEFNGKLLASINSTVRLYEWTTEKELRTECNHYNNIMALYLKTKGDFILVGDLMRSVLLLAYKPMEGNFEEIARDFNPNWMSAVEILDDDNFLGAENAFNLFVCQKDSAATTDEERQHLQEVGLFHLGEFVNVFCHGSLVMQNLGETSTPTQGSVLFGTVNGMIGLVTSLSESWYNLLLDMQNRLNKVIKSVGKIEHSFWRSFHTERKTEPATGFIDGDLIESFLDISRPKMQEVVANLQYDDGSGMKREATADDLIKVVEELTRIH
# UniProt Q14209: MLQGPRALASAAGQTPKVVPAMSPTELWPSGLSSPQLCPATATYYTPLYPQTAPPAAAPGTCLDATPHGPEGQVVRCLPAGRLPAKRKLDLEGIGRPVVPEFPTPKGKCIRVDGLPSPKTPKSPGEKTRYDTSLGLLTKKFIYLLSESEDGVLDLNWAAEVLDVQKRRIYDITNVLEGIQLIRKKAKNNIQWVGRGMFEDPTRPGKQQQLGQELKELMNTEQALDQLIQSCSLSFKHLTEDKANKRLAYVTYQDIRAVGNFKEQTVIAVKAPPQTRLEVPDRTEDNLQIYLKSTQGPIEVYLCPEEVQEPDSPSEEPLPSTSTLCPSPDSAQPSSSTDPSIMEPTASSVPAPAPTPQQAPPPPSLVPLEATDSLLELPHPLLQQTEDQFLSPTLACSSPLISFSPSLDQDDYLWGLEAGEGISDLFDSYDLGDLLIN
# These are yes or no findings as the source states them, for the method shown. In cells and extracts the contact can be indirect. A yes stands for co-enrichment or nearness to the bait. Other partners may have been found.
# Target: T1, DCAF13 (human (endogenous in liver CSCs)) (UniProt Q9NV06)
# T1 sequence: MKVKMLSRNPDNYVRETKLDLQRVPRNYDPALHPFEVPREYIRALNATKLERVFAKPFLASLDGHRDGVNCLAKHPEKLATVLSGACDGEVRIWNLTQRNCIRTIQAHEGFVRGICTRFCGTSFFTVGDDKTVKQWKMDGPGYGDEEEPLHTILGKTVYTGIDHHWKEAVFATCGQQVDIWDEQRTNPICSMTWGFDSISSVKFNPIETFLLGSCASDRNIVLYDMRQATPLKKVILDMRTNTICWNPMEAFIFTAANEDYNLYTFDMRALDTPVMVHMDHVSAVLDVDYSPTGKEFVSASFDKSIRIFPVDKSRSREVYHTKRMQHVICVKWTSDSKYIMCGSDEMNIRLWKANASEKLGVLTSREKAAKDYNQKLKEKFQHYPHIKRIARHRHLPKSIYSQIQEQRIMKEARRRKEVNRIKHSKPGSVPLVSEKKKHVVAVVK
# Experiment: affinity purification with mass spectrometry; immunoprecipitation with anti-DCAF13 antibody (IgG as control) from lysates of SNORA74A depleted liver CSCs, bands identified by mass spectrometry
row,binding,Substance
1,binds,DDB1 (from UniProt Q16531 1-1140)
2,binds,E2F2 (from UniProt Q14209 1-437)
